Assay results reported in patent publication US20140287419A1, “Compositions Having Dicamba Decarboxylase Activity and Methods of Use” (priority 2013, published 2014).
Residue numbers refer to the chain shown, from its start. In names and notes the source's numbering stands. Some entries share one result that the patent states for a list of compounds.

B1: N61G: point mutation N61G of SEQ ID NO:109 (protein)
chain: MAQGKVALEEHFAIPETLQDSAGFVPGDYWKELQHRLLDIQDTRLKLMDAHGIETMILSLGAPAVQAIPDRRKAIEIARRANDVLAEECAKRPDRFLAFAALPLQDPDAATEELQRCVNDLGFVGALVNGFSQEGDGQTPLYYDLPQYRPFWGEVEKLDVPFYLHPRNPLPQDSRIYDGHPWLLGPTWAFAQETAVHALRLMASGLFDEHPRLNIILGHMGEGLPYMMWRIDHRVAWVKLPPRYPAKRRFMDYFNENFHITTSGNFRTQTLIDAILEIGADRILFSTDWPFENIDHASDWFNATSIAEADRVKIGRTNARRLFKLDGA
modifications: Dicamba decarboxylase variant clone DC.4.032
B2: N61S: point mutation N61S of SEQ ID NO:109 (protein)
chain: B1 chain with G61S
modifications: Dicamba decarboxylase variant clone DC.4.032
B3: A64G: point mutation A64G of SEQ ID NO:109 (protein)
chain: B1 chain with G61N, A64G
modifications: Dicamba decarboxylase variant clone DC.4.032
B4: A64S: point mutation A64S of SEQ ID NO:109 (protein)
chain: B1 chain with G61N, A64S
modifications: Dicamba decarboxylase variant clone DC.4.032
B5: L240A: point mutation L240A of SEQ ID NO:109 (protein)
chain: B1 chain with G61N, L240A
modifications: Dicamba decarboxylase variant clone DC.4.032
B6: L240D: point mutation L240D of SEQ ID NO:109 (protein)
chain: B1 chain with G61N, L240D
modifications: Dicamba decarboxylase variant clone DC.4.032
B7: L240E: point mutation L240E of SEQ ID NO:109 (protein)
chain: B1 chain with G61N, L240E
modifications: Dicamba decarboxylase variant clone DC.4.032
B8: S298A: point mutation S298A of SEQ ID NO:109 (protein)
chain: B1 chain with G61N, S298A
modifications: Dicamba decarboxylase variant clone DC.4.032
B9: G27A: point mutation G27A of SEQ ID NO:109 (protein)
chain: B1 chain with G27A, G61N
modifications: Dicamba decarboxylase variant clone DC.4.032
B10: S298T: point mutation S298T of SEQ ID NO:109 (protein)
chain: B1 chain with G61N, S298T
modifications: Dicamba decarboxylase variant clone DC.4.032
B11: A303E: point mutation A303E of SEQ ID NO:109 (protein)
chain: B1 chain with G61N, A303E
modifications: Dicamba decarboxylase variant clone DC.4.032
B12: G327Q: point mutation G327Q of SEQ ID NO:109 (protein)
chain: B1 chain with G61N, G327Q
modifications: Dicamba decarboxylase variant clone DC.4.032
B13: A328D: point mutation A328D of SEQ ID NO:109 (protein)
chain: B1 chain with G61N, A328D
modifications: Dicamba decarboxylase variant clone DC.4.032
B14: A328R: point mutation A328R of SEQ ID NO:109 (protein)
chain: B1 chain with G61N, A328R
modifications: Dicamba decarboxylase variant clone DC.4.032
B15: G27S: point mutation G27S of SEQ ID NO:109 (protein)
chain: B1 chain with G27S, G61N
modifications: Dicamba decarboxylase variant clone DC.4.032
B16: G27T: point mutation G27T of SEQ ID NO:109 (protein)
chain: B1 chain with G27T, G61N
modifications: Dicamba decarboxylase variant clone DC.4.032
B17: L38I: point mutation L38I of SEQ ID NO:109 (protein)
chain: B1 chain with L38I, G61N
modifications: Dicamba decarboxylase variant clone DC.4.032
B18: D42A: point mutation D42A of SEQ ID NO:109 (protein)
chain: B1 chain with D42A, G61N
modifications: Dicamba decarboxylase variant clone DC.4.032
B19: D42M: point mutation D42M of SEQ ID NO:109 (protein)
chain: B1 chain with D42M, G61N
modifications: Dicamba decarboxylase variant clone DC.4.032
B20: D42S: point mutation D42S of SEQ ID NO:109 (protein)
chain: B1 chain with D42S, G61N
modifications: Dicamba decarboxylase variant clone DC.4.032
B21: G52E: point mutation G52E of SEQ ID NO:109 (protein)
chain: B1 chain with G52E, G61N
modifications: Dicamba decarboxylase variant clone DC.4.032
B22: N61A: point mutation N61A of SEQ ID NO:109 (protein)
chain: B1 chain with G61A
modifications: Dicamba decarboxylase variant clone DC.4.032
B23: E16A: point mutation E16A of SEQ ID NO:109 (protein)
chain: B1 chain with E16A, G61N
modifications: Dicamba decarboxylase variant clone DC.4.032
B24: P63V: point mutation P63V of SEQ ID NO:109 (protein)
chain: B1 chain with G61N, P63V
modifications: Dicamba decarboxylase variant clone DC.4.032
B25: N214Q: point mutation N214Q of SEQ ID NO:109 (protein)
chain: B1 chain with G61N, N214Q
modifications: Dicamba decarboxylase variant clone DC.4.032
B26: V235I: point mutation V235I of SEQ ID NO:109 (protein)
chain: B1 chain with G61N, V235I
modifications: Dicamba decarboxylase variant clone DC.4.032
B27: N302A: point mutation N302A of SEQ ID NO:109 (protein)
chain: B1 chain with G61N, N302A
modifications: Dicamba decarboxylase variant clone DC.4.032

assay: Saturation mutagenesis of SEQ ID NO:109, dicamba decarboxylation activity of point mutants; conditions: point mutants of SEQ ID NO:109

Molecule	dicamba decarboxylation activity compared to SEQ ID NO:109
B1	more than 2.0 fold
B2	more than 2.0 fold
B3	more than 2.0 fold
B4	more than 2.0 fold
B5	more than 2.0 fold
B6	more than 2.0 fold
B7	more than 2.0 fold
B8	more than 2.0 fold
B9	more than 2.0 fold
B10	more than 2.0 fold
B11	more than 2.0 fold
B12	more than 2.0 fold
B13	more than 2.0 fold
B14	more than 2.0 fold
B15	more than 2.0 fold
B16	more than 2.0 fold
B17	more than 2.0 fold
B18	more than 2.0 fold
B19	more than 2.0 fold
B20	more than 2.0 fold
B21	more than 2.0 fold
B22	more than 2.0 fold
B23	greater than 1.8 fold
B24	greater than 1.8 fold
B25	greater than 1.8 fold
B26	greater than 1.8 fold
B27	greater than 1.8 fold
